Consider two substances from paper PMC6718399.

The chains behind the UniProt entries cited, without tags or fusion partners. Where a name states a change or a piece, a line headed by the entry shows the natural chain unless it says otherwise.
UniProt P16615: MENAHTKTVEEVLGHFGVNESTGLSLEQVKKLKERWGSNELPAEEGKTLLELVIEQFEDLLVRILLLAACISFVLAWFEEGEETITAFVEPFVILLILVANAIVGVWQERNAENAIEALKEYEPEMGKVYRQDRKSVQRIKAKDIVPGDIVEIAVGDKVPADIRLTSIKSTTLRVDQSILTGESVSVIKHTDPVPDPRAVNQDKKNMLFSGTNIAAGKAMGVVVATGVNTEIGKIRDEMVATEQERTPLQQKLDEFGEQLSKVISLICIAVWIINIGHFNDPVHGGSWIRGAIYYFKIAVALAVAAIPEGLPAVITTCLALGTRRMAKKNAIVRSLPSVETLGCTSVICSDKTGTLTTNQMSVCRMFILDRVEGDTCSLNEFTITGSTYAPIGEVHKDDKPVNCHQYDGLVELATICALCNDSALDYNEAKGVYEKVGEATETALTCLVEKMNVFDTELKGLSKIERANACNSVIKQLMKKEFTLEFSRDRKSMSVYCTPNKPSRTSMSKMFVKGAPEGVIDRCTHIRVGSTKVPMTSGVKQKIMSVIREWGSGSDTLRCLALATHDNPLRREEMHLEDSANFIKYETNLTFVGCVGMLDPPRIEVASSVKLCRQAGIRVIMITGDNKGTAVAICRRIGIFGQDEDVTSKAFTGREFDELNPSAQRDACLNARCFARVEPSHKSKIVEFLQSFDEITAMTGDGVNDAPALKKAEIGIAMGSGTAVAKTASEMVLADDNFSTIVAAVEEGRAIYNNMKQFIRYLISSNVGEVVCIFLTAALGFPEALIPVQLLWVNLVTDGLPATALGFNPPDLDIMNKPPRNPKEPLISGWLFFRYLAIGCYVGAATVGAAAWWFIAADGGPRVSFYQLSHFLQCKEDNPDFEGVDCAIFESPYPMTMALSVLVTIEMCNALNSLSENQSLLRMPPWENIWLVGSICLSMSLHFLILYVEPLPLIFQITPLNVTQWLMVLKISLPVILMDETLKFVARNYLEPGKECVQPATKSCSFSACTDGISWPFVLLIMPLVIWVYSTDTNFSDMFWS

These are yes or no findings as the source states them, for the method shown. In cells and extracts the contact can be indirect. Some results given as binding are weak or reduced against the parent protein; the word gives no strength.

For assay [1], the target named is SERCA2b (sarco/endoplasmic reticulum ATPase 2, isoform b) (human (endogenous in Mel202)) (UniProt P16615). Briefly: co-IP; IP of SERCA2 (monoclonal ab2861, Dynabeads Protein A) from 1.5 mg lysate of Mel202 cells expressing HaloTag or Halo-PERP; 30 min at room temperature; four washes in PBS; blot with a HaloTag antibody.
Assay [2] deals with Halo-PERP (PERP fused to an N-terminal HaloTag) (UniProt Q96FX8). The experiment in a line: pull-down; HaloTag Mammalian Pull-Down System from Mel202 lysate; elution by ProTEV, then SDS; immunoblot with the SERCA2b isoform-specific antibody; two independent experiments. (In western blotting, separated proteins are transferred to a membrane and probed.)

As to “Halo-PERP (PERP fused to an N-terminal HaloTag) (from UniProt Q96FX8 1-193)”, the binding entry in assay [1] is listed as “binds”.
As for “SERCA2b (sarco/endoplasmic reticulum ATPase 2, isoform b) (from UniProt P16615-1 1-1042)”, the binding result in assay [2] is given as “binds”.
